Construct, isoform or probe ends are uncertain for at least one entry. No signal at the amounts used counts as a negative. Weaker means in comparison with the reference protein, sequence or condition of that experiment. At least one verdict was read from the data and is not stated in words by the source.
System: CNBP (zCNBP, formerly ZNF9) (Danio rerio)
Assay: EMSA
Conditions: EMSA: 20 ul, 30 min at 37 C, 2 nM 32P probe, 0.015-5 uM zCNBP, 12% (14-nt) or 10% (30-nt) PAGE with 5% glycerol, 0.5x TBE, binding buffer, recombinant protein, label: 32P
[1] = up to 5 uM CNBP, single-stranded DNA

Chains of the proteins cited; added tags and fusions are not shown. Chains listed by the source or under a name are the forms on record and can include a tag or linker.
CNBP (zCNBP, formerly ZNF9) (Danio rerio), one chain, as listed by the source: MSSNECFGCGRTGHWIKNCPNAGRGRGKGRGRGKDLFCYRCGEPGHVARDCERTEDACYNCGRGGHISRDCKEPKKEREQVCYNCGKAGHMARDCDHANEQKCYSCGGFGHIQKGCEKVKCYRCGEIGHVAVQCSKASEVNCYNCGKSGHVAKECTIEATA

Sequence: GAGGGGGAGGGGGG [C14]
- binding result (high affinity, Kd printed only in figure, single-stranded DNA): binds

Sequence: GAAGAAGAAGAGAG [C14-mut]
- binding result [1]: no binding

Sequence: GCACCCTGGAAGAAGAAGAAAGGTTGGTAG [s1-mut]
- binding result (single-stranded DNA): binds more weakly

Sequence: TAATAATAGAGGGGGAGGGGGGATAATAAT [C30]
- binding result (similar to C14, single-stranded DNA): binds

Sequence: GAAGCTCAGAGAGGTAAAGGGGTGCAGCAC [s2]
- binding result (single-stranded DNA): binds

Sequence: GAGGGGGAGGGGGG (double strand) [ds-C14]
- binding result (up to 5 uM CNBP): no binding

Sequence: GATGGAGAGAGTGGGAGAGAAGAAGCAGAG [t1]
- binding result (single-stranded DNA): binds

Sequence: GCACCCTGGAGGAGGAGGAAGGGTTGGTAG [s1]
- binding result (single-stranded DNA): binds

Sequence: GATGGAGAGAATAAGAAAAAAGAAGCAGAG [t1-mut]
- binding result (single-stranded DNA): binds more weakly

Sequence: ATTATTATCCCCCCTCCCCCTCTATTATTA [C30-comp]
- binding result [1]: no binding

Sequence: TAATAATAGAAGAAGAAGAGAGATAATAAT [C30-mut]
- binding result [1]: no binding

Sequence: TAATAATAGAGGGGGAGGGGGGATAATAAT (double strand) [ds-C30]
- binding result (up to 5 uM CNBP): no binding

Sequence: CCCCCCTCCCCCTC [C14-comp]
- binding result [1]: no binding

Sequence: GAAGCTCAGAAAAATAAAAGAGTGCAGCAC [s2-mut]
- binding result (single-stranded DNA): binds more weakly

From article PMC3646763
